Results are given in words; binding and its absence hold for the method and conditions named. In cells and extracts the contact can be indirect. Some binding calls cover weakened binding; strength is not graded here.
Target: His-StTai4 (type VI amidase immunity 4 from Salmonella typhimurium) (S. typhimurium) (UniProt Q8ZRL5)
Test: pull-down; His-tagged immunity protein on Ni beads, 277 K, 15 min; native effector proteins loaded; washed with 20 mM imidazole, eluted with 250 mM imidazole; SDS-PAGE, Coomassie blue

“EcTae4 (type VI amidase effector 4 from Enterobacter cloacae) (from UniProt A0A0H3CIJ2 1-163) (enzyme)” was tested, and the binding was “binds”.

— PMC3759425, “Insights into the Cross-Immunity Mechanism within Effector Families of Bacteria Type VI Secretion System from the Structure of StTae4-EcTai4 Complex” (PLoS ONE, 2013)
